In patent CN115232210A:
These are yes or no findings as the source states them, for the method shown. Some binding calls cover weakened binding; strength is not graded here.

Chains of the proteins cited; added tags and fusions are not shown. Lines headed by an entry give the natural chain unless they say otherwise; changes in a name come on top. A line that says so, or that is headed by a name, gives the form on record, which may keep a tag or linker.
HEK293T细胞表达的猴CD40 (猴 (cyno)) (G7PG38, form named): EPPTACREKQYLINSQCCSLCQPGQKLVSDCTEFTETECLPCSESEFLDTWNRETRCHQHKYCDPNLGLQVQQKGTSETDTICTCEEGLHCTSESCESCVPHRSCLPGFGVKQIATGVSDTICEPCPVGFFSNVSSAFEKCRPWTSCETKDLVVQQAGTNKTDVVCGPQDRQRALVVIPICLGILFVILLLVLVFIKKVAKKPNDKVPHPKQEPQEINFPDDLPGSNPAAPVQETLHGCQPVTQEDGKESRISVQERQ

Molecular target: HEK293T细胞表达的猴CD40 (猴 (cyno)) (UniProt G7PG38)
Assay: flow cytometry on HEK293T-cynoCD40 cells

| Binder | binding |
| --- | --- |
| 42D11-8 (antibody, V domains shown) VH: QVQLKQSGPGLVQPSQSLSITCTVSGFSLTSYGVHWVRQSPGKGLEWLGMIWSGGSTDYNSAFISRLSISKDNFKSQVFFKMNSLQADDTAIYYCARVGGDYWGQGTTVTVSS VL: DIVITQTPLSLPVSLGDPASISCRSSQSLVHSRGNTYLHWFLQKPGQSPKLLIYKVSNRFSGVPDRFSGSGSGTDFTLRISRLEAEDLGVYFCFQTTHVPWTFGGGTKLEIK | binds |
| 31A2-2 (antibody, V domains shown) VH: QVQLKESGPGLVQPSQSLSITCTVSGFSLTNYSVHWVRQSPGKGLEWLGMIWSGGSTDYNAAFISRLSISKDNFKSQVFFKMNSLQADDTAIYYCARVGGDYWGQGTTVTVSS VL: DVLMTQTPLSLPVSLGDPASISCRSSQSLLHSRGNTYLHWFLQKPGQSPKLLIYKVSNRFSGVPDRFSGSGSGTDFTLRISRVEAEDLGVYFCFQTTHVPWTFGGGTKLEIK | binds |
